{"source": "patent US20250283871A1", "about": "“COMPOSITIONS AND METHODS FOR MODULATING THE INTERACTION BETWEEN SS18-SSX FUSION ONCOPROTEIN AND NUCLEOSOMES” (Dana-Farber Cancer Institute, Inc., priority 2020, published 2025)", "molecules": {"B1": {"name": "RHBDD2 (protein, UniProt Q6NTF9 1-364, looked up)", "Rhomboid domain-containing …": "MAASGPGCRSWCLCPEVPSATFFTALLSLLVSGPRLFLLQQPLAPSGLTLKSEALRNWQVYRLVTYIFVYENPISLLCGAIIIWRFAGNFERTVGTVRHCFFTVIFAIFSAIIFLSFEAVSSLSKLGEVEDARGFTPVAFAMLGVTTVRSRMRRALVFGMVVPSVLVPWLLLGASWLIPQTSFLSNVCGLSIGLAYGLTYCYSIDLSERVALKLDQTFPFSLMRRISVFKYVSGSSAERRAAQSRKLNPVPGSYPTQSCHPHLSPSHPVSQTQHASGQKLASWPSCTPGHMPTLPPYQPASGLCYVQNHFGPNPTSSSVYPASAGTSLGIQPPTPVNSPGTVYSGALGTPGAAGSKESSRVPMP"}, "B2": {"name": "CYB5R3 (protein, UniProt P00387 2-301, looked up)", "NADH-cytochrome b5 reductase 3": "GAQLSTLGHMVLFPVWFLYSLLMKLFQRSTPAITLESPDIKYPLRLIDREIISHDTRRFRFALPSPQHILGLPVGQHIYLSARIDGNLVVRPYTPISSDDDKGFVDLVIKVYFKDTHPKFPAGGKMSQYLESMQIGDTIEFRGPSGLLVYQGKGKFAIRPDKKSNPIIRTVKSVGMIAGGTGITPMLQVIRAIMKDPDDHTVCHLLFANQTEKDILLRPELEELRNKHSARFKLWYTLDRAPEAWDYGQGFVNEEMIRDHLPPPEEEPLVLMCGPPPMIQYACLPNLDHVGHPTERCFVF"}, "B3": {"name": "JPH1 (protein, UniProt Q9HDC5 1-661, looked up)", "Junctophilin-1": "MTGGRFDFDDGGTYCGGWEEGKAHGHGICTGPKGQGEYSGSWSHGFEVVGGYTWPSGNTYQGYWAQGKRHGLGVETKGKWMYRGEWSHGFKGRYGVRQSLCTPARYEGTWSNGLQDGYGVETYGDGGTYQGQWAGGMRHGYGVRQSVPYGMATVIRSPLRTSLASLRSEQSNGSVLHDAAAAADSPAGTRGGFVLNFHADAELAGKKKGGLFRRGSLLGSMKLRKSESKSSISSKRSSVRSDAAMSRISSSDANSTISFGDVDCDFCPVEDHVDATTTETYMGEWKNDKRNGFGVSERSNGMKYEGEWANNKRHGYGCTVFPDGSKEEGKYKNNILVRGIRKQLIPIRHTKTREKVDRAIEGAQRAAAMARTKVEIANSRTAHARAKADAADQAALAARQECDIARAVARELSPDFYQPGPDYVKQRFQEGVDAKENPEEKVPEKPPTPKESPHFYRKGTTPPRSPEASPKHSHSPASSPKPLKKQNPSSGARLNQDKRSVADEQVTAIVNKPLMSKAPTKEAGAVVPQSKYSGRHHIPNPSNGELHSQYHGYYVKLNAPQHPPVDVEDGDGSSQSSSALVHKPSANKWSPSKSVTKPVAKESKAEPKAKKSELAIPKNPASNDSCPALEKEANSGPNSIMIVLVMLLNIGLAILFVHFLT"}, "B4": {"name": "D2HGDH (protein, UniProt Q8N465 14-521, looked up)", "D-2-hydroxyglutarate …": "LRGAPGAAGSWGRPVGPLARRGCCSAPGTPEVPLTRERYPVRRLPFSTVSKQDLAAFERIVPGGVVTDPEALQAPNVDWLRTLRGCSKVLLRPRTSEEVSHILRHCHERNLAVNPQGGNTGMVGGSVPVFDEIILSTARMNRVLSFHSVSGILVCQAGCVLEELSRYVEERDFIMPLDLGAKGSCHIGGNVATNAGGLRFLRYGSLHGTVLGLEVVLADGTVLDCLTSLRKDNTGYDLKQLFIGSEGTLGIITTVSILCPPKPRAVNVAFLGCPGFAEVLQTFSTCKGMLGEILSAFEFMDAVCMQLVGRHLHLASPVQESPFYVLIETSGSNAGHDAEKLGHFLEHALGSGLVTDGTMATDQRKVKMLWALRERITEALSRDGYVYKYDLSLPVERLYDIVTDLRARLGPHAKHVVGYGHLGDGNLHLNVTAEAFSPSLLAALEPHVYEWTAGQQGSVSAEHGVGFRKRDVLGYSKPPGALQLMQQLKALLDPKGILNPYKTLPSQA"}, "B5": {"name": "SLC38A2 (protein, UniProt Q96QD8 1-506, looked up)", "Sodium-coupled neutral amino …": "MKKAEMGRFSISPDEDSSSYSSNSDFNYSYPTKQAALKSHYADVDPENQNFLLESNLGKKKYETEFHPGTTSFGMSVFNLSNAIVGSGILGLSYAMANTGIALFIILLTFVSIFSLYSVHLLLKTANEGGSLLYEQLGYKAFGLVGKLAASGSITMQNIGAMSSYLFIVKYELPLVIQALTNIEDKTGLWYLNGNYLVLLVSLVVILPLSLFRNLGYLGYTSGLSLLCMVFFLIVVICKKFQVPCPVEAALIINETINTTLTQPTALVPALSHNVTENDSCRPHYFIFNSQTVYAVPILIFSFVCHPAVLPIYEELKDRSRRRMMNVSKISFFAMFLMYLLAALFGYLTFYEHVESELLHTYSSILGTDILLLIVRLAVLMAVTLTVPVVIFPIRSSVTHLLCASKDFSWWRHSLITVSILAFTNLLVIFVPTIRDIFGFIGASAASMLIFILPSAFYIKLVKKEPMKSVQKIGALFFLLSGVLVMTGSMALIVLDWVHNAPGGGH"}, "B6": {"name": "SLC25A40 (protein, UniProt Q8TBP6 1-338, looked up)", "Mitochondrial glutathione …": "MDPETRGQEIIKVTPLQQMLASCTGAILTSVIVTPLDVVKIRLQAQNNPLPKGKCFVYSNGLMDHLCVCEEGGNKLWYKKPGNFQGTLDAFFKIIRNEGIKSLWSGLPPTLVMAVPATVIYFTCYDQLSALLRSKLGENETCIPIVAGIVARFGAVTVISPLELIRTKMQSKKFSYVELHRFVSKKVSEDGWISLWRGWAPTVLRDVPFSAMYWYNYEILKKWLCEKSGLYEPTFMINFTSGALSGSFAAVATLPFDVVKTQKQTQLWTYESHKISMPLHMSTWIIMKNIVAKNGFSGLFSGLIPRLIKIAPACAIMISTYEFGKAFFQKQNVRRQQY"}, "B7": {"name": "METTL7A (protein, UniProt Q9H8H3 30-244, looked up)", "Thiol S-methyltransferase …": "WICKKWFPYFLVRFTVIYNEQMASKKRELFSNLQEFAGPSGKLSLLEVGCGTGANFKFYPPGCRVTCIDPNPNFEKFLIKSIAENRHLQFERFVVAAGENMHQVADGSVDVVVCTLVLCSVKNQERILREVCRVLRPGGAFYFMEHVAAECSTWNYFWQQVLDPAWHLLFDGCNLTRESWKALERASFSKLKLQHIQAPLSWELVRPHIYGYAVK"}, "B8": {"name": "MPDU1 (protein, UniProt O75352 2-247, looked up)", "Mannose-P-dolichol …": "AAEADGPLKRLLVPILLPEKCYDQLFVQWDLLHVPCLKILLSKGLGLGIVAGSLLVKLPQVFKILGAKSAEGLSLQSVMLELVALTGTMVYSITNNFPFSSWGEALFLMLQTITICFLVMHYRGQTVKGVAFLACYGLVLLVLLSPLTPLTVVTLLQASNVPAVVVGRLLQAATNYHNGHTGQLSAITVFLLFGGSLARIFTSIQETGDPLMAGTFVVSSLCNGLIAAQLLFYWNAKPPHKQKKAQ"}, "B9": {"name": "MFN2 (protein, UniProt O95140 1-757, looked up)", "Mitofusin-2": "MSLLFSRCNSIVTVKKNKRHMAEVNASPLKHFVTAKKKINGIFEQLGAYIQESATFLEDTYRNAELDPVTTEEQVLDVKGYLSKVRGISEVLARRHMKVAFFGRTSNGKSTVINAMLWDKVLPSGIGHTTNCFLRVEGTDGHEAFLLTEGSEEKRSAKTVNQLAHALHQDKQLHAGSLVSVMWPNSKCPLLKDDLVLMDSPGIDVTTELDSWIDKFCLDADVFVLVANSESTLMQTEKHFFHKVSERLSRPNIFILNNRWDASASEPEYMEEVRRQHMERCTSFLVDELGVVDRSQAGDRIFFVSAKEVLNARIQKAQGMPEGGGALAEGFQVRMFEFQNFERRFEECISQSAVKTKFEQHTVRAKQIAEAVRLIMDSLHMAAREQQVYCEEMREERQDRLKFIDKQLELLAQDYKLRIKQITEEVERQVSTAMAEEIRRLSVLVDDYQMDFHPSPVVLKVYKNELHRHIEEGLGRNMSDRCSTAITNSLQTMQQDMIDGLKPLLPVSVRSQIDMLVPRQCFSLNYDLNCDKLCADFQEDIEFHFSLGWTMLVNRFLGPKNSRRALMGYNDQVQRPIPLTPANPSMPPLPQGSLTQEEFMVSMVTGLASLTSRTSMGILVVGGVVWKAVGWRLIALSFGLYGLLYVYERLTWTTKAKERAFKRQFVEHASEKLQLVISYTGSNCSHQVQQELSGTFAHLCQQVDVTRENLEQEIAAMNKKIEVLDSLQSKAKLLRNKAGWLDSELNMFTHQYLQPSR"}}}
{"test_system": "BAF complex subunits and histone proteins", "assay": "Mass spectrometry proteomics of purified HA-SS18 WT and HA-SS18-SSX1 complexes (Tables 5A-5E)", "parameters": "species or system human", "settings": "HA-SS18SSX1_NE_peptides: protein co-purified with HA-SS18-SSX1 BAF complexes from soluble nuclear extract (NE), HEK-293T cells"}
{"molecule": "B1", "Total (peptides)": 1, "Unique (peptides)": 1}
{"molecule": "B2", "Total (peptides)": 1, "Unique (peptides)": 1}
{"molecule": "B3", "Total (peptides)": 1, "Unique (peptides)": 1}
{"molecule": "B4", "Total (peptides)": 1, "Unique (peptides)": 1}
{"molecule": "B5", "Total (peptides)": 1, "Unique (peptides)": 1}
{"molecule": "B6", "Total (peptides)": 1, "Unique (peptides)": 1}
{"molecule": "B7", "Total (peptides)": 1, "Unique (peptides)": 1}
{"molecule": "B8", "Total (peptides)": 1, "Unique (peptides)": 1}
{"molecule": "B9", "Total (peptides)": 1, "Unique (peptides)": 1}
{"test_system": "BAF complex subunits and histone proteins", "assay": "Mass spectrometry proteomics of purified HA-SS18 WT and HA-SS18-SSX1 complexes (Tables 5A-5E)", "parameters": "species or system human", "settings": "HA-SS18WT_NE_peptides: HA-SS18 WT complexes purified from nuclear extract (NE), HEK-293T; label = protein identified (Gene Symbol)"}
{"molecule": "B4", "Total (peptides)": 2, "Unique (peptides)": 2}
{"test_system": "BAF complex subunits and histone proteins", "assay": "Mass spectrometry proteomics of purified HA-SS18 WT and HA-SS18-SSX1 complexes (Tables 5A-5E)", "parameters": "species or system human", "settings": "HA-SS18WT_NE_peptides: proteins co-purified with HA-SS18 WT from nuclear extract (NE), HEK-293T"}
{"molecule": "B1", "Total (peptides)": 1, "Unique (peptides)": 1}
{"molecule": "B3", "Total (peptides)": 1, "Unique (peptides)": 1}
{"molecule": "B5", "Total (peptides)": 1, "Unique (peptides)": 1}
{"molecule": "B6", "Total (peptides)": 1, "Unique (peptides)": 1}
{"molecule": "B8", "Total (peptides)": 1, "Unique (peptides)": 1}
